The source of these data is PubChem BioAssay AID1347426 (Functional Genomics Laboratory (NCATS/FGL), 2020).

The campaign covered roughly 31,000 sequences. About 1,400 (4.5%) were called active.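 The calls were made as follows: active = median seed-adjusted z-score above 1 or below -1; inactive = the rest.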 The list shows a part of the results.

This assay can be described thus: Novel Modifiers of Survival Motor Neuron (SMN) Protein: Gene Identification via Genome-wide siRNA Screen.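 Also: luminescence tracks full-length SMN protein made from the SMN2 reporter.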 To be noted: HEK293T SMN2-luciferase reporter, siRNA knockdown, 72 h; actives lie on both sides. The gist of the method:
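HEK293T cells stably expressing an SMN2 splicing/cDNA-luciferase reporter were reverse-transfected with a druggable-genome siRNA library and read by luminescence at 72 hours; hits defined by MAD score above 1.0 or below -1.0.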
For GUGGGAAAAAUGUAGGAGATT against LTB, the median seed-adjusted z-score was inactive: 0.646.

As for GGAUCUUCCUACUCGACUATT against THADA, the median seed-adjusted z-score is inactive: 0.00995.

Consider CUCAUUGCCUUUUCACAGATT against UGT1A1, for which the median seed-adjusted z-score was inactive: -0.0283.

Take GGACCGUGUUCUUUACGUATT against NDUFAB1: the median seed-adjusted z-score was inactive: -0.282.

In the case of GGAUAAUGUCUUAUGUAAUTT against PNPLA3, the median seed-adjusted z-score was inactive: -0.0642.

On to GGAAGAUGUUGACAUAUUUTT against ACAT2, for which the median seed-adjusted z-score was active: 1.25.

As for GAAUCCAAAUAAACCCUGATT against NHLH2, the median seed-adjusted z-score was inactive: 0.

Turning to GAGUGAUGCCGGUAAAGAATT against CASP2, the median seed-adjusted z-score is inactive: 0.421.

Regarding CAAAUUGCCUCGUCAAAGATT against DNTT, the median seed-adjusted z-score is inactive: 0.316.

CAACAGUUCAAUGAAUCAATT against FOXP2: the median seed-adjusted z-score was inactive: 0.222.

For the sequence GUGAAUACAUGGAUAAAAATT against SSBP1, the median seed-adjusted z-score was inactive: -0.456.

For the sequence GCUUCUUAGCUGAGGAAAATT against RDH11, the median seed-adjusted z-score is inactive: -0.241.

As for CAAUGAUCCCAAGACAAAATT against RNASEH2A, the median seed-adjusted z-score is inactive: -0.158.

Take UCCUCUAUGUGGAGAAUGATT against G6PD: the median seed-adjusted z-score was inactive: 0.593.

Take GACGAGGUAUGUGAAGACATT against RING1: the median seed-adjusted z-score is inactive: 0.685.

As for GCAACCCUGUCUACAGUAATT against SMAP1, the median seed-adjusted z-score is inactive: -0.201.

For the sequence CAACGAAAUGUUUACUGCATT against ADAMTS9, the median seed-adjusted z-score was inactive: 0.103.

As to GAACAUGUAUGGUAGUAAATT against GABBR2, the median seed-adjusted z-score is inactive: -0.038.

For AAAAAGACACCUUAACAUATT against SAP30, the median seed-adjusted z-score was inactive: -0.618.

Regarding GAAUCACCGAGAAGAUGGATT against RORA, the median seed-adjusted z-score was inactive: -0.144.

As for AUAUCACUGCAAAGGUUUATT against KLRC4, the median seed-adjusted z-score was inactive: -0.218.

Turning to GCUCUUAUGCGACAGUUUATT against PFTK2, the median seed-adjusted z-score is active: -1.16.

With CGACAUUCUUGAGUGUGAATT against PLG, the median seed-adjusted z-score was inactive: 0.00473.

As to CGCUGUUCGUCCACCUGAATT against ADAMTS8, the median seed-adjusted z-score is inactive: 0.115.

In the case of CUAUACUUCUCCAACGUGATT against NFASC, the median seed-adjusted z-score is inactive: 0.594.

Take AGCUGAAGGAGGAUACAGATT against RBM19: the median seed-adjusted z-score was inactive: 0.204.

For CUUUUUCGAUGAAUCUCAATT against ESX1, the median seed-adjusted z-score was inactive: 0.275.

As to GGAUCUGGAAGGUAGAAAATT against CHAF1B, the median seed-adjusted z-score is inactive: 0.634.

In the case of CAUGCUUGCUGAUCAGCUATT against RAC3, the median seed-adjusted z-score is inactive: 0.477.

On to CGACACUCACUGUACUUCATT against ATG4D, for which the median seed-adjusted z-score was inactive: -0.216.

With CUCCCAACGUGGUCAAGCATT against PAX1, the median seed-adjusted z-score is inactive: -0.111.

On to UCCUGUUCCGCGACCCUUATT against CAPN12, for which the median seed-adjusted z-score is inactive: 0.155.

On to CACUGAGAGUAAUCGCUAUTT against NUP160, for which the median seed-adjusted z-score is inactive: -0.261.

With GUCAUGUACUGGAAGCUCATT against WFS1, the median seed-adjusted z-score was inactive: 0.696.

As to CCACGGAUCUGAGAUUAAATT against ARSJ, the median seed-adjusted z-score is inactive: -0.0978.

For the sequence GAGGAUUCGCUAUAAGAAATT against PBX2, the median seed-adjusted z-score was inactive: 0.253.

Turning to CCAACGAACAUGUACAACATT against CACNA2D3, the median seed-adjusted z-score is inactive: 0.198.

As to GGAUAACACUGUACAAGCUTT against PTPN4, the median seed-adjusted z-score was inactive: -0.447.

UUUGCUGUCUUGAACAUAATT against GIPC1: the median seed-adjusted z-score is inactive: 0.

As to AAACAAAACUUGCACUUUATT against RASD1, the median seed-adjusted z-score is inactive: 0.674.

For the sequence GCCUGCAGGUGAAAUGGAATT against PLSCR4, the median seed-adjusted z-score was inactive: -0.543.

Turning to CAACGAGAAUGGUAUACAATT against SMARCA1, the median seed-adjusted z-score is inactive: 0.6.

With AAAUCACUGCUUCAGAAUATT against MS4A5, the median seed-adjusted z-score was inactive: 0.226.

On to GCAUCACACUCACAUCCCATT against DNASE2, for which the median seed-adjusted z-score was active: -1.23.

Regarding CCAGAAUGAUCAAGCAUUUTT against NEK7, the median seed-adjusted z-score was inactive: 0.

For GCACUUGCAGGUUUUAAAUTT against LRTM1, the median seed-adjusted z-score was inactive: 0.492.

Regarding GGGUAGAUGACAAGGUGAATT against UCHL1, the median seed-adjusted z-score is inactive: -0.421.

Turning to GCAGCCCUGGGCUAAACAATT against HES6, the median seed-adjusted z-score was inactive: 0.71.

On to GAAAGAUCAUGGGAAGAAATT against RALBP1, for which the median seed-adjusted z-score is inactive: -0.0514.

As to GAGACCUAACUGUACGUGATT against TSG101, the median seed-adjusted z-score was active: 1.48.

GAAGAUUGGUUUUCGAUUATT against LIN9: the median seed-adjusted z-score is inactive: 0.

For the sequence GCAGUUGCACUAUAAUGGATT against PTPN21, the median seed-adjusted z-score is inactive: 0.

Regarding GUUCAUCUUGAUUCACAAATT against NOC4L, the median seed-adjusted z-score was inactive: -0.315.

With GAGUCUGCUUUAAAGCGCATT against ZNF509, the median seed-adjusted z-score was inactive: 0.

On to AGGUGAACGAGAACUGGUATT against SORBS3, for which the median seed-adjusted z-score was inactive: 0.106.

As for CCACGUGUCCGGAAUAAAUTT against GLI4, the median seed-adjusted z-score was inactive: 0.0798.

Take “GGGUUUUUGCGCUUCAAAATT against GALNAC4S-6ST”: the median seed-adjusted z-score was inactive: 0.218.

As for GCCUACUUCAUUCAUCAUATT against KSR1, the median seed-adjusted z-score is inactive: 0.0873.

CAAUAUUGAGAGGAAAUCATT against PPP2CB: the median seed-adjusted z-score was inactive: 0.486.

On to CCAUCGUCAUCUCUGUGCATT against MAT1A, for which the median seed-adjusted z-score is inactive: 0.501.

For GCCUGGUAGUGACAGUAGATT against STAP1, the median seed-adjusted z-score is inactive: 0.

Regarding CGACUUACAGGACAGCAGATT against AMACR, the median seed-adjusted z-score is inactive: -0.591.

For CACCCAUCAUUCUUCAAGATT against SAAL1, the median seed-adjusted z-score was inactive: 0.00224.

On to GCACCUGGAAGGGAUGUCATT against PGAM2, for which the median seed-adjusted z-score was inactive: -0.247.

Turning to GGACUUACUAAAAGCUAAATT against CRKRS, the median seed-adjusted z-score is active: -1.16.

As for GAGUAGAAUUUAAGACAAATT against SOX8, the median seed-adjusted z-score is inactive: 0.186.

Turning to GGGACCCGAUGUUCACUUUTT against LILRA4, the median seed-adjusted z-score was inactive: 0.109.

On to CGAUAAGGCGAAAAUCGAUTT against CHRNA3, for which the median seed-adjusted z-score is inactive: -0.359.

GCUACUUUAUAUACGGAAATT against IL15: the median seed-adjusted z-score was inactive: -0.139.
